# Source: the supplement of paper PMC8728848
# The list shows a part of the results.
# B1: LF82 (Escherichia coli) (protein)
# chain: ADWGPCRTASGDPFIFVTSFTKNIQNPTDNVTGQTYPDFYQWALGDKYSGVCECPSPNPTEARPTLYKTESTLAAGHNSTYFKITNNLEVSTRVYIANVGNVQVPFINKSNSQPGRECDQPTFGWTTGSKGQLSLYIAKPFVGEQNIPQTIIVSVFGTKKENVYSSVPISQVLLSGKVTVTQGCELAAGTSLDIDFGEYQAHDFKGRTGQPPQNVQKIQKELTFNCTNISDGVHIYLSLEGTPNAAYPSAISLGNADVGAVIEDGKGNILKPNDSNSLLEMNPGSLYEYVKRKVTTTITAYPVSTTGKLPAAGDYSGVATMHVELDGGGGGGGGGGATTDLGAKGTLKFSLKISQGHHHHHH
# Assays:
# Assay in all cases: glycan array binding signal (z-score within array); higher = stronger binding
# Conditions in all cases: glycan notation: IUPAC condensed, linker removed
# [1] = target: GalNAc(b1-4)GlcNAc(b1-2)Man
# In short: (§1)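 The binding signal is a Z-score computed within each array and averaged over linkers. Arrays of the same protein sequence at different concentrations or buffers were also averaged together. Data originate from 3228 arrays in the Consortium for Functional Glycomics database, kept only where the protein sequence was available.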
# [2] = target: GalNAc(b1-4)GlcNAc(b1-2)Man(a1-3)[GalNAc(b1-4)GlcNAc(b1-2)Man(a1-6)]Man(b1-4)GlcNAc(b1-4)GlcNAc
# In short: as §1
# [3] = target: GalNAc(b1-4)GlcNAc(b1-3)GalNAc(b1-4)GlcNAc
# In short: as §1
# [4] = target: GalNAc(b1-4)GlcNAc6S
# In short: as §1
# [5] = target: GalNAc(b1-6)GalNAc
# In short: as §1
# [6] = target: GalNAc3S(b1-4)GlcNAc
# In short: as §1
# [7] = target: GalNAc3S(b1-4)GlcNAc3S
# In short: as §1
# [8] = target: GalNAc3S(b1-4)[Fuc(a1-3)]GlcNAc
# In short: as §1
# [9] = target: GalNAc4S6S(b1-4)GlcNAc
# In short: as §1
# [10] = target: GalNAc6S(b1-4)GlcNAc
# In short: as §1
# [11] = target: Glc(a1-4)Glc
# In short: as §1
# [12] = target: Glc(a1-4)Glc(a1-4)Glc(a1-4)Glc
# In short: as §1
# [13] = target: Glc(a1-6)Glc(a1-6)Glc
# In short: as §1
# [14] = target: Glc(a1-6)Glc(a1-6)Glc(a1-6)Glc
# In short: as §1
# [15] = target: Glc(b1-4)Glc
# In short: as §1
# [16] = target: Glc(b1-6)Glc
# In short: as §1
# [17] = target: GlcA(b1-3)Gal
# In short: as §1
# [18] = target: GlcA(b1-3)GlcNAc
# In short: as §1
# [19] = target: GlcA(b1-6)Gal
# In short: as §1
# [20] = target: GlcA3S(b1-3)Gal(b1-4)GlcNAc(b1-2)Man
# In short: as §1
# [21] = target: GlcA3S(b1-3)Gal(b1-4)GlcNAc(b1-3)Gal(b1-4)Glc
# In short: as §1
# [22] = target: GlcNAc(a1-3)Gal(b1-4)GlcNAc
# In short: as §1
# [23] = target: GlcNAc(a1-4)Gal(b1-3)GlcNAc
# In short: as §1
# [24] = target: GlcNAc(a1-4)Gal(b1-4)GalNAc
# In short: as §1
# [25] = target: GlcNAc(a1-4)Gal(b1-4)GlcNAc
# In short: as §1
# [26] = target: GlcNAc(a1-4)Gal(b1-4)GlcNAc(b1-3)Gal(b1-4)Glc
# In short: as §1
# [27] = target: GlcNAc(a1-4)Gal(b1-4)GlcNAc(b1-3)Gal(b1-4)GlcNAc
# In short: as §1
# [28] = target: GlcNAc(a1-4)Gal(b1-4)GlcNAc(b1-3)Gal(b1-4)GlcNAc(b1-3)Gal(b1-4)GlcNAc
# In short: as §1
# [29] = target: GlcNAc(a1-4)Gal(b1-4)GlcNAc(b1-3)Gal(b1-4)[Fuc(a1-3)]GlcNAc(b1-3)Gal(b1-4)[Fuc(a1-3)]GlcNAc
# In short: as §1
# [30] = target: GlcNAc(a1-6)Gal(b1-4)GlcNAc
# In short: as §1
# [31] = target: GlcNAc(b1-2)Gal(b1-3)GalNAc
# In short: as §1
# [32] = target: GlcNAc(b1-2)Man(a1-3)[GlcNAc(b1-2)Man(a1-6)]Man(b1-4)GlcNAc(b1-4)GlcNAc
# In short: as §1
# [33] = target: GlcNAc(b1-2)Man(a1-3)[GlcNAc(b1-2)Man(a1-6)]Man(b1-4)GlcNAc(b1-4)[Fuc(a1-6)]GlcNAc
# In short: as §1
# [34] = target: GlcNAc(b1-2)Man(a1-3)[GlcNAc(b1-4)][GlcNAc(b1-2)Man(a1-6)]Man(b1-4)GlcNAc(b1-4)GlcNAc
# In short: as §1
# [35] = target: GlcNAc(b1-2)Man(a1-3)[GlcNAc(b1-4)][GlcNAc(b1-2)Man(a1-6)]Man(b1-4)GlcNAc(b1-4)[Fuc(a1-6)]GlcNAc
# In short: as §1
# [36] = target: GlcNAc(b1-2)[GlcNAc(b1-4)]Man(a1-3)[GlcNAc(b1-2)Man(a1-6)]Man(b1-4)GlcNAc(b1-4)GlcNAc
# In short: as §1
# [37] = target: GlcNAc(b1-2)[GlcNAc(b1-4)]Man(a1-3)[GlcNAc(b1-4)][GlcNAc(b1-2)Man(a1-6)]Man(b1-4)GlcNAc(b1-4)GlcNAc
# In short: as §1
binder,measurement,setting,value
B1,glycan array binding signal (z-score),[1],0.518
same,glycan array binding signal (z-score),[2],-0.272
same,glycan array binding signal (z-score),[3],0.16
same,glycan array binding signal (z-score),[4],-0.757
same,glycan array binding signal (z-score),[5],-0.45
same,glycan array binding signal (z-score),[6],-0.069
same,glycan array binding signal (z-score),[7],0.34
same,glycan array binding signal (z-score),[8],0.051
same,glycan array binding signal (z-score),[9],-0.262
same,glycan array binding signal (z-score),[10],-0.033
same,glycan array binding signal (z-score),[11],-0.601
same,glycan array binding signal (z-score),[12],1.21
same,glycan array binding signal (z-score),[13],-0.628
same,glycan array binding signal (z-score),[14],-0.531
same,glycan array binding signal (z-score),[15],-0.609
same,glycan array binding signal (z-score),[16],-0.504
same,glycan array binding signal (z-score),[17],-0.731
same,glycan array binding signal (z-score),[18],-0.481
same,glycan array binding signal (z-score),[19],-0.657
same,glycan array binding signal (z-score),[20],-0.536
same,glycan array binding signal (z-score),[21],-0.41
same,glycan array binding signal (z-score),[22],-0.08
same,glycan array binding signal (z-score),[23],-0.634
same,glycan array binding signal (z-score),[24],-0.059
same,glycan array binding signal (z-score),[25],2.49
same,glycan array binding signal (z-score),[26],-0.417
same,glycan array binding signal (z-score),[27],-0.259
same,glycan array binding signal (z-score),[28],-0.795
same,glycan array binding signal (z-score),[29],3.63
same,glycan array binding signal (z-score),[30],1.4
same,glycan array binding signal (z-score),[31],0.767
same,glycan array binding signal (z-score),[32],-0.657
same,glycan array binding signal (z-score),[33],0.963
same,glycan array binding signal (z-score),[34],0.053
same,glycan array binding signal (z-score),[35],0.495
same,glycan array binding signal (z-score),[36],-0.221
same,glycan array binding signal (z-score),[37],-0.63

# Pulled one by one from the list above (three):
binder,measurement,setting,value
B1,glycan array binding signal (z-score),[4],-0.757
same,glycan array binding signal (z-score),[1],0.518
same,glycan array binding signal (z-score),[25],2.49
